Results: PMC9221416

Tests used:
Assay in all cases: cell aggregation assay; HEK293 cells co-expressing EGFP and Lphn3 variants mixed 1:1 with HEK293 cells co-expressing DsRed and Flrt3 or Teneurin 2; DMEM, 50 mM HEPES-NaOH pH 7.4, 10% FBS, 10 mM CaCl2, 10 mM MgCl2; 2 h under agitation at room temperature; epifluorescence microscopy, aggregation index
[1] = molecular target: human Lphn3^HA/Flag (latrophilin-3, wild type) (human)
[2] = molecular target: human Lphn3^HA/Flag A760G (human)
[3] = molecular target: human Lphn3^HA/Flag D798H (human)
[4] = molecular target: human Lphn3^HA/Flag E811Q (human)
[5] = molecular target: human Lphn3^HA/Flag K561N (human)
[6] = molecular target: human Lphn3^HA/Flag S810L (human)

binding [1]: binds
binding [2]: binds
binding [3]: binds
binding [4]: binds
binding [5]: binds
binding [6]: binds
B1: membrane-anchored human Flrt3 (ligand, UniProt Q9NZU0 29-649)
chain: KSCPSVCRCDAGFIYCNDRFLTSIPTGIPEDATTLYLQNNQINNAGIPSDLKNLLKVERIYLYHNSLDEFPTNLPKYVKELHLQENNIRTITYDSLSKIPYLEELHLDDNSVSAVSIEEGAFRDSNYLRLLFLSRNHLSTIPWGLPRTIEELRLDDNRISTISSPSLQGLTSLKRLVLDGNLLNNHGLGDKVFFNLVNLTELSLVRNSLTAAPVNLPGTNLRKLYLQDNHINRVPPNAFSYLRQLYRLDMSNNNLSNLPQGIFDDLDNITQLILRNNPWYCGCKMKWVRDWLQSLPVKVNVRGLMCQAPEKVRGMAIKDLNAELFDCKDSGIVSTIQITTAIPNTVYPAQGQWPAPVTKQPDIKNPKLTKDHQTTGSPSRKTITITVKSVTSDTIHISWKLALPMTALRLSWLKLGHSPAFGSITETIVTGERSEYLVTALEPDSPYKVCMVPMETSNLYLFDETPVCIETETAPLRMYNPTTTLNREQEKEPYKNPNLPLAAIIGGAVALVTIALLALVCWYVHRNGSLFSRNCAYSKGRRRKDDYAEAGTKKDNSILEIRETSFQMLPISNEPISKEEFVIHTIFPPNGMNLYKNNHSESSSNRSYRDSGIPDSDHSHS

These are yes or no findings as the source states them, for the method shown. Binding calls can cover weak binding; strength is not graded here.
